{"source": "patent US10746749B2", "about": "“Ellagic acid formulations for use in coagulation assays” (Abbott Point of Care Inc., priority 2014, dated 2020)", "assay": "Visual solubilization of ellagic acid in solvent/agent", "type": "physicochemical", "conditions": "0.0224 g in 6 mL of 1M PEG 400", "note": "The name of at least one read-out is uncertain."}
{"smiles": "O=c1oc2c(O)c(O)cc3c(=O)oc4c(O)c(O)cc1c4c23", "note": "[ellagic acid]", "values": [{"measurement": "solubilization of the powder in the solvent", "result": "quickly solubilized"}]}
